Results deposited as PubChem BioAssay AID1259254 (NCATS, 2017).
The deposit covers about 59,000 reagents; this is a random part of them. About 1,550 of all reagents (2.6%) count as active. 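G2 share is only a proxy for re-replication; each gene was hit by three separate siRNAs, and active genes were retested.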 Further read-outs or replicates are left out here. Not given: the amount of reagent.

- Purpose: 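Gene knock-downs that lead to re-replication, shown by excess G2 DNA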 (primary screen)
- System: human HCT116 colorectal cancer cells
- Knock-down reagent: single siRNA against human genes
- Time to read-out: 3 days
- Measured: 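Nuclei stained with Hoechst and imaged; cell-cycle phase assigned by DNA content; G2 share scaled per plate, non-targeting siRNA 0%, GMNN siRNA 100%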
- Reading the numbers: G2 robust z-score and G2 cells, % of GMNN control: higher = more G2 cells, more excess DNA replication
- Call rule: 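An siRNA counts as active if its G2 robust z-score lies at least 5 MADs above the screen median; here such calls match roughly 38% of GMNN control or more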

| target | PubChem SID | G2 robust z-score | G2 cells, % of GMNN control | activity call |
| --- | --- | --- | --- | --- |
| FHIP2A | SID160746614 | -0.585 | -1.15 | inactive |
| FHIP2A | SID160746615 | -0.295 | 0.892 | inactive |
| FHIP2A | SID160746617 | -0.589 | -1.18 | inactive |
| HOXA5 | SID160731074 | -1.28 | -6.06 | inactive |
| HOXA5 | SID160775168 | -0.879 | -3.22 | inactive |
| HOXA5 | SID160775169 | -0.832 | -2.89 | inactive |
| LAMA5 | SID160776499 | -0.812 | -2.74 | inactive |
| LAMA5 | SID160776500 | 1.46 | 13.2 | inactive |
| LAMA5 | SID160776501 | -0.257 | 1.16 | inactive |
| RBBP9 | SID160729127 | 0.25 | 4.73 | inactive |
| RBBP9 | SID160729128 | 1.03 | 10.2 | inactive |
| RBBP9 | SID160729129 | -0.722 | -2.11 | inactive |
| XTBD1P1 | SID160766648 | -0.554 | -0.929 | inactive |
| XTBD1P1 | SID160766649 | -0.808 | -2.72 | inactive |
| XTBD1P1 | SID160766651 | -0.164 | 1.81 | inactive |
| PAM | SID160713819 | -1.03 | -4.31 | inactive |
| PAM | SID160713820 | 0.599 | 7.18 | inactive |
| PAM | SID160731332 | -0.571 | -1.05 | inactive |
| SIRT7 | SID160740979 | -0.642 | -1.55 | inactive |
| SIRT7 | SID160740980 | -0.373 | 0.346 | inactive |
| SIRT7 | SID160740981 | 1.68 | 14.8 | inactive |
| EXOC3L4 | SID160754115 | 0.0128 | 3.06 | inactive |
| EXOC3L4 | SID160754117 | -0.969 | -3.85 | inactive |
| EXOC3L4 | SID160754118 | 0.239 | 4.65 | inactive |
| SULT1A4 | SID160768208 | 0.489 | 6.41 | inactive |
| SULT1A4 | SID160768209 | -0.0996 | 2.27 | inactive |
| SULT1A4 | SID160768210 | 1.11 | 10.8 | inactive |
| TLL1 | SID160718115 | -1.06 | -4.51 | inactive |
| TLL1 | SID160718117 | -0.405 | 0.117 | inactive |
| TLL1 | SID160731838 | 0.915 | 9.41 | inactive |
| LINC00921 | SID160763070 | 0.477 | 6.32 | inactive |
| LINC00921 | SID160763071 | -0.541 | -0.842 | inactive |
| LINC00921 | SID160763072 | 0.212 | 4.46 | inactive |
| OAZ1 | SID160731314 | 4.87 | 37.2 | inactive |
| OAZ1 | SID160776743 | -0.596 | -1.23 | inactive |
| OAZ1 | SID160776854 | 4.1 | 31.8 | inactive |
| BCOR | SID160733562 | 2.17 | 18.2 | inactive |
| BCOR | SID160742397 | -0.53 | -0.763 | inactive |
| BCOR | SID160742398 | 0.803 | 8.62 | inactive |
| SNX9 | SID160740794 | -0.611 | -1.33 | inactive |
| SNX9 | SID160740795 | -0.495 | -0.518 | inactive |
| SNX9 | SID160740796 | -0.102 | 2.25 | inactive |
| PAF1 | SID160741983 | -0.127 | 2.07 | inactive |
| PAF1 | SID160741984 | -0.478 | -0.395 | inactive |
| PAF1 | SID160741985 | -0.507 | -0.601 | inactive |
| RTP2 | SID160764819 | -0.318 | 0.73 | inactive |
| RTP2 | SID160764820 | -0.579 | -1.1 | inactive |
| RTP2 | SID160764821 | 2.49 | 20.5 | inactive |
